Chains of the proteins cited; added tags and fusions are not shown.
UniProt P0AC55: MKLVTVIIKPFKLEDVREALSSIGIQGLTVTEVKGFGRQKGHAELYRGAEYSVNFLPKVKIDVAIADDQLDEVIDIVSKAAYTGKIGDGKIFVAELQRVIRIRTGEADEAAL
UniProt P0A9Z1: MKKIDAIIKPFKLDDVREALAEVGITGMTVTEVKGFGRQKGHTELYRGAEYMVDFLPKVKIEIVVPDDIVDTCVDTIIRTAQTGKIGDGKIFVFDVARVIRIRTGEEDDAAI

In publication PMC11617674, “The activity of the ribonucleotide monophosphatase UmpH is controlled by interaction with the GlnK signaling protein in Escherichia coli” (The Journal of Biological Chemistry, 2024):

B1: GlnE, endogenous in E. coli cell-free extract (enzyme, UniProt P30870 1-946)
chain: MKPLSSPLQQYWQTVVERLPEPLAEESLSAQAKSVLTFSDFVQDSVIAHPEWLTELESQPPQADEWQHYAAWLQEALCNVSDEAGLMRELRLFRRRIMVRIAWAQTLALVTEESILQQLSYLAETLIVAARDWLYDACCREWGTPCNAQGEAQPLLILGMGKLGGGELNFSSDIDLIFAWPEHGCTQGGRRELDNAQFFTRMGQRLIKVLDQPTQDGFVYRVDMRLRPFGESGPLVLSFAALEDYYQEQGRDWERYAMVKARIMGDSEGVYANELRAMLRPFVFRRYIDFSVIQSLRNMKGMIAREVRRRGLTDNIKLGAGGIREIEFIVQVFQLIRGGREPSLQSRSLLPTLSAIAELHLLSENDAEQLRVAYLFLRRLENLLQSINDEQTQTLPSDELNRARLAWAMDFADWPQLTGALTAHMTNVRRVFNELIGDDESETQEESLSEQWRELWQDALQEDDTTPVLAHLSEDDRKQVLTLIADFRKELDKRTIGPRGRQVLDHLMPHLLSDVCAREDAAVTLSRITALLVGIVTRTTYLELLSEFPAALKHLISLCAASPMIASQLARYPLLLDELLDPNTLYQPTATDAYRDELRQYLLRVPEDDEEQQLEALRQFKQAQLLRIAAADIAGTLPVMKVSDHLTWLAEAMIDAVVQQAWVQMVARYGKPNHLNEREGRGFAVVGYGKLGGWELGYSSDLDLIFLHDCPMDAMTDGEREIDGRQFYLRLAQRIMHLFSTRTSSGILYEVDARLRPSGAAGMLVTSAEAFADYQKNEAWTWEHQALVRARVVYGDPQLTAHFDAVRREIMTLPREGKTLQTEVREMREKMRAHLGNKHRDRFDIKADEGGITDIEFITQYLVLRYAHEKPKLTRWSDNVRILELLAQNDIMEEQEAMALTRAYTTLRDELHHLALQELPGHVSEDCFTAERELVRASWQKWLVEE
B2: UmpH, endogenous in E. coli cell-free extract (enzyme, UniProt P0AF24 1-250)
chain: MTIKNVICDIDGVLMHDNVAVPGAAEFLHGIMDKGLPLVLLTNYPSQTGQDLANRFATAGVDVPDSVFYTSAMATADFLRRQEGKKAYVVGEGALIHELYKAGFTITDVNPDFVIVGETRSYNWDMMHKAAYFVANGARFIATNPDTHGRGFYPACGALCAGIEKISGRKPFYVGKPSPWIIRAALNKMQAHSEETVIVGDNLRTDILAGFQAGLETILVLSGVSSLDDIDSMPFRPSWIYPSVAEIDVI

Experiments:
[1] = biological target: His-GlnK (E. coli PII signaling protein GlnK, N-terminal His tag) (E. coli) (UniProt P0AC55); experiment: affinity purification with mass spectrometry; ligand fishing: His-GlnK or His-GlnB held on Ni-IDA columns, loaded with cell-free extract of E. coli FT8000 ΔglnBglnK in 50 mM Tris-HCl pH 8, 0.1 M KCl, 20 mM imidazole, 5 mM MgCl2, 1 mM ATP; eluted with 1 mM ATP + 1.5 mM 2-OG; SDS-PAGE, MALDI-TOF and label-free LC/MS/MS; only the target purified
[2] = biological target: His-GlnB (E. coli PII signaling protein GlnB, N-terminal His tag) (E. coli) (UniProt P0A9Z1); experiment: as above

Binder	binding [1]	binding [2]
B1	binds	
B2		no binding

No constants are given. Whether binding was seen depends on the method and setting. Binding seen in cells or lysates may run through a third protein. Here binding means that the protein was enriched with, or labelled near, the bait; the list need not be complete. For some assays here: No binding means not detected with the bait.
